Measurements from the supplement of paper PMC6411743.
± gives the standard deviation of the averaged measurements. The list shows a part of the results, in another mix than the full data.

By UniProt entry, the sequences of proteins in these tests, tags left out. Where a name states a change or a piece, a line headed by the entry shows the natural chain unless it says otherwise.
UniProt Q9NVA1: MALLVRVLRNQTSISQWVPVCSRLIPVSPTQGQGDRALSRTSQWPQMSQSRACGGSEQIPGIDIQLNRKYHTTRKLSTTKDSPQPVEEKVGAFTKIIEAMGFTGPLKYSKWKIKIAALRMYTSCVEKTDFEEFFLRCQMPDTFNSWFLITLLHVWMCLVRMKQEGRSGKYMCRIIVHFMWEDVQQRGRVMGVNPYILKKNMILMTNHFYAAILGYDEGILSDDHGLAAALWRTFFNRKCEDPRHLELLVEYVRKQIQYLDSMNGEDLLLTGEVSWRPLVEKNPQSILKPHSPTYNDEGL
UniProt Q9NXR7, whole entry: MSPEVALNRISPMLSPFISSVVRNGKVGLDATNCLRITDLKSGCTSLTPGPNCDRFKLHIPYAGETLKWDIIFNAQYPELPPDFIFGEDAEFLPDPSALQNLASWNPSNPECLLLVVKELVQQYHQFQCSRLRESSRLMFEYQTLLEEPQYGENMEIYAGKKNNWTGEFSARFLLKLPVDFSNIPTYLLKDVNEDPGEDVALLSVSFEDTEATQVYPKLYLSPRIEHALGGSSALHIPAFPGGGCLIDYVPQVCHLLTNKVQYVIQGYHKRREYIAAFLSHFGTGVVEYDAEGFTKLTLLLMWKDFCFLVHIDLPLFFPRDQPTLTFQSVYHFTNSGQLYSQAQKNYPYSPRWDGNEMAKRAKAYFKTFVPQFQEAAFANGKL
UniProt Q9NRK6: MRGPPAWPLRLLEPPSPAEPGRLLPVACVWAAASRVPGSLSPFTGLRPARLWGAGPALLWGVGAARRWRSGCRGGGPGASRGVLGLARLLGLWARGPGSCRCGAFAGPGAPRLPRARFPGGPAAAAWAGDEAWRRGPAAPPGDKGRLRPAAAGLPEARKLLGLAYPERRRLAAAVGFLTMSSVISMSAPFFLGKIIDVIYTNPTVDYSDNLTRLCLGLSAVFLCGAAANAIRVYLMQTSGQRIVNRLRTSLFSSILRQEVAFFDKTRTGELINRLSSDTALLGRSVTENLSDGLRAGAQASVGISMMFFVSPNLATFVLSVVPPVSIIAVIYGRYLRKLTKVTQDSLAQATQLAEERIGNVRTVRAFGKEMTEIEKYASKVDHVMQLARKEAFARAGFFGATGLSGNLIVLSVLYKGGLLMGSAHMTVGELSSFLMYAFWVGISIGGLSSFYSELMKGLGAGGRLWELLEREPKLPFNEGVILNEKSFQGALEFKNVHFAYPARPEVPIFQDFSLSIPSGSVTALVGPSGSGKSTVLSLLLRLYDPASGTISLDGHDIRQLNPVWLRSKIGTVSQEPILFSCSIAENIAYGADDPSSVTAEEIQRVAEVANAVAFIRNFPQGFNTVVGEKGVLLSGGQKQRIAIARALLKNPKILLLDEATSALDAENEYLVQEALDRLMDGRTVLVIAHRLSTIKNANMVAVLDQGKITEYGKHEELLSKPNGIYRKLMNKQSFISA
UniProt Q9NVJ2: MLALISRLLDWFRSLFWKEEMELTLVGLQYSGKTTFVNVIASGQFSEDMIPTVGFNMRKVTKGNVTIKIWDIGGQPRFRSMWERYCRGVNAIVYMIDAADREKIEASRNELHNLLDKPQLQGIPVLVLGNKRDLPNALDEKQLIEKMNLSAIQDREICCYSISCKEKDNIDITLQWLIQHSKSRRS
UniProt Q9P1W8, whole entry: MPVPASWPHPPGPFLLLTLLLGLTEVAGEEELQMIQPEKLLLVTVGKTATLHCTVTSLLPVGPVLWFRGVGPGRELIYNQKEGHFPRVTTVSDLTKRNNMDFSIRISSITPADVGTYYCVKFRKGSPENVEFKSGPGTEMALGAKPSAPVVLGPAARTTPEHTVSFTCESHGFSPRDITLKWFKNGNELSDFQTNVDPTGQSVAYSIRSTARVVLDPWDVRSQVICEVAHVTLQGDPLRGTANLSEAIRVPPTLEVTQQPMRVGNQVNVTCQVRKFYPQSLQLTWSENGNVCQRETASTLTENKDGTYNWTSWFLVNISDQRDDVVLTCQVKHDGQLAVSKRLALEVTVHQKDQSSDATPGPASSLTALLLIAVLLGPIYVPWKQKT
UniProt Q9NX55: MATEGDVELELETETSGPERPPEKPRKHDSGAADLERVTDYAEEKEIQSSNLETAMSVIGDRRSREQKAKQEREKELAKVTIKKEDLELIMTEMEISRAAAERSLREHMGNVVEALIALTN
UniProt Q9NRD1: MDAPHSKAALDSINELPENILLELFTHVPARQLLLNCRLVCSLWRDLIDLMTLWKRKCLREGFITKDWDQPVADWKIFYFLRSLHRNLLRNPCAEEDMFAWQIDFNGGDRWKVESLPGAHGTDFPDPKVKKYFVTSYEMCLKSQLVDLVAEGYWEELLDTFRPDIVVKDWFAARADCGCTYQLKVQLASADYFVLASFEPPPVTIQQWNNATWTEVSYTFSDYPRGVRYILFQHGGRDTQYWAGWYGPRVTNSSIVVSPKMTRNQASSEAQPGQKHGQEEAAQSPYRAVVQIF
UniProt Q9NQH7: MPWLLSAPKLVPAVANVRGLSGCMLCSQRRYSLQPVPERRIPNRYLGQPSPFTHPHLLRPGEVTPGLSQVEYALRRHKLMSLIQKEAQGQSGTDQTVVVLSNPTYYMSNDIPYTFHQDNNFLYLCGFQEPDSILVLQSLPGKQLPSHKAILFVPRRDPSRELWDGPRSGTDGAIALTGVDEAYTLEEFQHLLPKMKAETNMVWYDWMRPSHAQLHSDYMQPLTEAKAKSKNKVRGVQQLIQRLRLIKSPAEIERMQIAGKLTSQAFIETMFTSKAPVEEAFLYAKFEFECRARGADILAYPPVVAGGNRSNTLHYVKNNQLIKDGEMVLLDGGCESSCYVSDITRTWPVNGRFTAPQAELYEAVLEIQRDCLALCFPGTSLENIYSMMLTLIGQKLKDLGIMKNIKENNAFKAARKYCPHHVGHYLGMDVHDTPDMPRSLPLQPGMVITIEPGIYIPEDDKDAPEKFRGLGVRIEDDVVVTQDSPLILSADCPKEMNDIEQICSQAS
UniProt Q9P021, whole entry: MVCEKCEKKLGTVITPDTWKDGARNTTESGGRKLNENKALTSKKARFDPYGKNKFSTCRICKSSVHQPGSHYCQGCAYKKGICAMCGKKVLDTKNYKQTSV
UniProt Q9NVZ3: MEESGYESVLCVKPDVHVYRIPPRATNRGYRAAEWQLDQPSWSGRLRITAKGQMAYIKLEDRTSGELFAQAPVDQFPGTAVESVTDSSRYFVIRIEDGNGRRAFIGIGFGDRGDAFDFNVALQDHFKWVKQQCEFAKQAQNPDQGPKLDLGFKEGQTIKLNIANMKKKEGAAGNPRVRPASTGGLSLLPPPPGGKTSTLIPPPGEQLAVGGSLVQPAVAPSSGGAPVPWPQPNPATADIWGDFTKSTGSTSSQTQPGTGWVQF
UniProt Q9NYJ8: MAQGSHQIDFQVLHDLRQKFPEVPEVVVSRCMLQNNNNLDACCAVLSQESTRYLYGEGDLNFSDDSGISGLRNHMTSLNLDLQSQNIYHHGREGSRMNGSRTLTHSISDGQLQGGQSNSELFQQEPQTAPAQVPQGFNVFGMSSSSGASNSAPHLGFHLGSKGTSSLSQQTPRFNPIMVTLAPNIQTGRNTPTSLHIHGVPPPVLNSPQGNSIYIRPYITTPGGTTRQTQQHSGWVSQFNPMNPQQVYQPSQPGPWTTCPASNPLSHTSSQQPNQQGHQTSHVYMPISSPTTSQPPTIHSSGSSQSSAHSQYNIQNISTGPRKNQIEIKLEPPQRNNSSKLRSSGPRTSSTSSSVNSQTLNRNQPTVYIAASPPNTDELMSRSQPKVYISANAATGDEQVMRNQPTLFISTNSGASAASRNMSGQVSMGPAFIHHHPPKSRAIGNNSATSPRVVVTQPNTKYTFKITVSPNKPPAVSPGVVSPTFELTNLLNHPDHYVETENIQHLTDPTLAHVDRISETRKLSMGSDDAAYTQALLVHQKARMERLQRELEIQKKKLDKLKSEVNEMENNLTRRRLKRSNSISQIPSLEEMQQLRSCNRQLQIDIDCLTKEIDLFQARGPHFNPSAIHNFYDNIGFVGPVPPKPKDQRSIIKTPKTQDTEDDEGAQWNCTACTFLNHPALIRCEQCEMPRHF
UniProt Q9NZW5: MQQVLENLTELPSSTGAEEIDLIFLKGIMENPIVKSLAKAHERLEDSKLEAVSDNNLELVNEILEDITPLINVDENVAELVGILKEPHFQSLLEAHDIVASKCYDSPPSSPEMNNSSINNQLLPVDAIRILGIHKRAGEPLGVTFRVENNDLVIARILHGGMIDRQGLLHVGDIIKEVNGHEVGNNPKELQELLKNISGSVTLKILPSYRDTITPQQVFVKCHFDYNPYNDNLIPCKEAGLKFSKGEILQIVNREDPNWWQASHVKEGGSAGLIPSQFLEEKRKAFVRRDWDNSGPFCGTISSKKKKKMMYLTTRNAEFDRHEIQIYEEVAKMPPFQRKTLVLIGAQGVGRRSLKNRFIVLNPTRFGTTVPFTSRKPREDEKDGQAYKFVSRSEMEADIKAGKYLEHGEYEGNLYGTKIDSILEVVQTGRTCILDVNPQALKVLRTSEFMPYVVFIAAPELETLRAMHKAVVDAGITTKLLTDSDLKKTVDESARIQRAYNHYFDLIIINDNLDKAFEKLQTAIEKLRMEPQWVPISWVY
UniProt Q9P219: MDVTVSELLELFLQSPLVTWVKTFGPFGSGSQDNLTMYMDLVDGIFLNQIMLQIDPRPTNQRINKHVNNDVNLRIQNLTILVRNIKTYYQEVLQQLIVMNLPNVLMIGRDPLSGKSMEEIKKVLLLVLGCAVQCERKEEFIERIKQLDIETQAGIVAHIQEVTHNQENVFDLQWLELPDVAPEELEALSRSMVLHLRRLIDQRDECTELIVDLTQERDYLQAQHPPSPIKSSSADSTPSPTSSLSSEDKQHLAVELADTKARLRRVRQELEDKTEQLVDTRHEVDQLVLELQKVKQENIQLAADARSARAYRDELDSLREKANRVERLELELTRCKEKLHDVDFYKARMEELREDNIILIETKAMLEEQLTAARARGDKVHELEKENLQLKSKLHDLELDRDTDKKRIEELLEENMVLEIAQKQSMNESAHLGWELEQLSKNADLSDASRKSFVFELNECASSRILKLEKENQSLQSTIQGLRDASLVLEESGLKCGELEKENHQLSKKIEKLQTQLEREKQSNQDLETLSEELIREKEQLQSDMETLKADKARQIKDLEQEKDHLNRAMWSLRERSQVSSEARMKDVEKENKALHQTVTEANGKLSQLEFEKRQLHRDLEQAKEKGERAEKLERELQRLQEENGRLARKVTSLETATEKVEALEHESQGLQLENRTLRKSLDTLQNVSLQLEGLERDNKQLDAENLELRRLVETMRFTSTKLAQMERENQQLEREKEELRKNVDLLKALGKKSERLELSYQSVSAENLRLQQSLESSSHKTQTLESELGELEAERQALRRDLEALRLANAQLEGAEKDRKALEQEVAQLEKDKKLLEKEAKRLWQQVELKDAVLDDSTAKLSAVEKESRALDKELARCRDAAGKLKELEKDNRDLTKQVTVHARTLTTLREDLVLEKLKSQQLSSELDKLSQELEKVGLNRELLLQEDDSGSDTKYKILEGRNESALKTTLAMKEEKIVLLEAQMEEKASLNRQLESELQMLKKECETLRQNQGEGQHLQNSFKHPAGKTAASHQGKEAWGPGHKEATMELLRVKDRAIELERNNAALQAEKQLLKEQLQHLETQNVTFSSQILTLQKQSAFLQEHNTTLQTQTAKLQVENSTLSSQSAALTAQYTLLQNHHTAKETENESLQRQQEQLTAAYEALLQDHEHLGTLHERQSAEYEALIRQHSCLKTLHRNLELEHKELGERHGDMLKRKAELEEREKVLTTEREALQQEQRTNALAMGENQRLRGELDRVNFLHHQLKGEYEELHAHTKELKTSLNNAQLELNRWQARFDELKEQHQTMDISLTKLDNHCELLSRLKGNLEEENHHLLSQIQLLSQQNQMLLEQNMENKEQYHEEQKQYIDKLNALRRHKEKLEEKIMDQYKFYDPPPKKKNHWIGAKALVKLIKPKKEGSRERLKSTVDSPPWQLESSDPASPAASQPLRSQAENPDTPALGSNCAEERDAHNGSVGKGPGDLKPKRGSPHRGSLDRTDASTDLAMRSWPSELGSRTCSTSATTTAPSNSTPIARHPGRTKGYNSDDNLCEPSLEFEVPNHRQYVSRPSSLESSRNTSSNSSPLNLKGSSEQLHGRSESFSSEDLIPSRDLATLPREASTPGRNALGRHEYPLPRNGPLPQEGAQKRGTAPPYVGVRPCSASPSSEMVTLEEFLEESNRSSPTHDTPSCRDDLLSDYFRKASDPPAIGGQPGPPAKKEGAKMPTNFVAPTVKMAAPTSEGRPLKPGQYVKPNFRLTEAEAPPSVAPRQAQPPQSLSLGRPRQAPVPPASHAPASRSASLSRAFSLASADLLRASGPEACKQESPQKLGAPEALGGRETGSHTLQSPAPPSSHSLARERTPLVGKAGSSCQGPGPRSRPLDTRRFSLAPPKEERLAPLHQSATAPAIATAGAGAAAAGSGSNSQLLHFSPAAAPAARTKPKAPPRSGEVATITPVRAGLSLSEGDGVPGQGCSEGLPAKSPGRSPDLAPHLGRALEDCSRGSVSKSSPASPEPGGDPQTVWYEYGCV

Compound: Nc1ncnc2c1ncn2[C@@H]1O[C@H](COP(=O)(O)OP(=O)(O)OP(=O)(O)O)[C@@H](O)[C@H]1O [adenosine triphosphate]
Assay: NP40-soluble protein abundance relative to vehicle (solubility fold change) (ratio); higher = more soluble protein in presence of ATP
Procedure, shortened: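 Eight concentrations, 0.1 to 10 mM, were tested on Jurkat crude lysate for 10 min at room temperature and then 3 min at 37 °C, in three independent experiments. The lysate was solubilised with 0.8% NP40 and benzonase, ultracentrifuged, and the supernatant TMT-labelled for LC-MS/MS. Each value is the fold change against the detergent-processed vehicle in its own replicate, from vsn-normalised intensities.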

Target	NP40-soluble protein abundance (concentration: 1mM)	NP40-soluble protein abundance (concentration: 2mM)	NP40-soluble protein abundance (concentration: 4mM)	NP40-soluble protein abundance (concentration: 6mM)	NP40-soluble protein abundance (concentration: 8mM)	NP40-soluble protein abundance (concentration: 10mM)
HMG20B (UniProt Q9P0W2)	1.03 ± 0.13	0.997 ± 0.1	1 ± 0.13	1.07 ± 0.15	1.03 ± 0.042	0.975 ± 0.1
UniProt Q9NWY4	1 ± 0.071	0.992 ± 0.035	0.958 ± 0.067	0.94 ± 0.1	0.971 ± 0.082	0.971 ± 0.054
FAM114A2 (UniProt Q9NRY5)	0.909 ± 0.072	0.943 ± 0.022	0.933 ± 0.026	0.97616 ± 0.00056	0.915 ± 0.026	0.925 ± 0.032
CDKN2AIP (UniProt Q9NXV6)	0.967 ± 0.032	0.968 ± 0.037	0.981 ± 0.015	1 ± 0.034	0.959 ± 0.032	0.977 ± 0.018
UniProt Q9NVA1 and related entries	0.956 ± 0.099	0.97 ± 0.13	0.978 ± 0.088	0.949 ± 0.12	0.972 ± 0.052	0.959 ± 0.066
ANLN (UniProt Q9NQW6)	0.986 ± 0.042	0.983 ± 0.032	0.962 ± 0.029	1 ± 0.016	0.947 ± 0.018	0.949 ± 0.014
OSGEP (UniProt Q9NPF4)	0.961 ± 0.039	0.967 ± 0.041	0.956 ± 0.017	0.931 ± 0.043	0.934 ± 0.027	0.928 ± 0.025
SERINC1 (UniProt Q9NRX5)	1.02 ± 0.077	1.07 ± 0.1	1.03 ± 0.05	1.04 ± 0.1	1.09 ± 0.18	1.06 ± 0.17
UniProt Q9P0U4 and related entries	1.02 ± 0.025	1.01 ± 0.045	1.04 ± 0.059	1.03 ± 0.061	1.04 ± 0.086	1.06 ± 0.063
THYN1 (UniProt Q9P016)	1.01 ± 0.097	1.04 ± 0.029	1.04 ± 0.049	1.15 ± 0.043	1.09 ± 0.016	1.07 ± 0.094
HIF1AN (UniProt Q9NWT6)	0.996 ± 0.04	0.977 ± 0.02	0.9548 ± 0.0048	0.929 ± 0.079	0.9589 ± 0.0057	0.9413 ± 0.0055
UniProt Q9NXR7	0.991 ± 0.022	0.998 ± 0.029	0.979 ± 0.036	0.973 ± 0.022	0.992 ± 0.067	0.987 ± 0.05
ABCB10 (UniProt Q9NRK6)	1 ± 0.076	1.02 ± 0.072	1 ± 0.037	0.945 ± 0.072	0.987 ± 0.036	1 ± 0.063
UniProt Q9NVJ2	0.945 ± 0.15	0.963 ± 0.16	0.93 ± 0.091	0.891 ± 0.069	0.893 ± 0.056	0.914 ± 0.057
KCMF1 (UniProt Q9P0J7)	0.96 ± 0.046	0.931 ± 0.081	0.898 ± 0.054	0.948 ± 0.19	0.949 ± 0.12	0.907 ± 0.06
SLC17A5 (UniProt Q9NRA2)	0.844 ± 0.017	1 ± 0.11	0.823 ± 0.012	0.845 ± 0.06	0.8772 ± 0.0026	0.888 ± 0.036
UBE2T (UniProt Q9NPD8)	0.979 ± 0.076	0.98 ± 0.04	0.963 ± 0.032	1 ± 0.016	0.926 ± 0.036	0.893 ± 0.032
UniProt Q9P1W8 and related entries	0.976 ± 0.022	1.03 ± 0.09	0.978 ± 0.026	0.9714 ± 0.0095	0.935 ± 0.027	0.936 ± 0.016
FAM120C (UniProt Q9NX05)	1.02 ± 0.086	1.02 ± 0.066	1.12 ± 0.12	1.17 ± 0.14	1.31 ± 0.11	1.35 ± 0.097
CISD1 (UniProt Q9NZ45)	0.999 ± 0.09	1.02 ± 0.045	1.01 ± 0.052	0.979 ± 0.044	0.989 ± 0.018	0.909 ± 0.095
UniProt Q9NX55	0.976 ± 0.049	0.96 ± 0.021	0.923 ± 0.034	1.07 ± 0.05	0.969 ± 0.017	0.944 ± 0.041
UniProt Q9NQZ6 and related entries	0.9474 ± 0.0076	0.923 ± 0.034	1.03 ± 0.025	1.02 ± 0.065	0.957 ± 0.019	0.918 ± 0.086
GNL3L (UniProt Q9NVN8)	0.993 ± 0.067	1.04 ± 0.015	1.03 ± 0.09	1.19 ± 0.22	1.19 ± 0.21	1.12 ± 0.063
UniProt Q9NRD1 and related entries	0.852 ± 0.15	0.811 ± 0.11	0.92 ± 0.14	0.904 ± 0.15	0.898 ± 0.12	0.99 ± 0.14

Target	NP40-soluble protein abundance (concentration: 1mM)	NP40-soluble protein abundance (concentration: 2mM)	NP40-soluble protein abundance (concentration: 4mM)	NP40-soluble protein abundance (concentration: 6mM)	NP40-soluble protein abundance (concentration: 8mM)	NP40-soluble protein abundance (concentration: 10mM)
FASTKD2 (UniProt Q9NYY8)	0.99 ± 0.034	0.982 ± 0.076	0.99 ± 0.027	0.955 ± 0.053	0.996 ± 0.096	0.97 ± 0.057
UniProt Q9NQH7 and related entries	1.06 ± 0.087	0.996 ± 0.057	1.02 ± 0.035	0.987 ± 0.059	1.03 ± 0.017	1 ± 0.044
THUMPD1 (UniProt Q9NXG2)	0.934 ± 0.038	0.955 ± 0.012	0.952 ± 0.026	0.983 ± 0.013	0.96 ± 0.013	0.931 ± 0.079
ACTR10 (UniProt Q9NZ32)	0.952 ± 0.019	0.934 ± 0.019	0.934 ± 0.015	0.9048 ± 0.0077	0.932 ± 0.05	0.914 ± 0.051
UBP1 (UniProt Q9NZI7)	1.04 ± 0.028	1.03 ± 0.021	1.045 ± 0.002	1.01 ± 0.043	1.01 ± 0.029	1.05 ± 0.067
CRIPT (UniProt Q9P021)	1.12 ± 0.12	1.08 ± 0.092	1.09 ± 0.093	1.09 ± 0.052	1.11 ± 0.075	1.01 ± 0.15
TMEM30A (UniProt Q9NV96)	0.926 ± 0.11	0.961 ± 0.073	0.94 ± 0.062	0.925 ± 0.14	0.865 ± 0.087	0.886 ± 0.073
UniProt Q9NZ08-2	0.977 ± 0.047	0.998 ± 0.057	0.962 ± 0.025	0.936 ± 0.046	0.938 ± 0.029	0.963 ± 0.025
UniProt Q9NW75 and related entries	1.03 ± 0.045	1.03 ± 0.025	1.03 ± 0.03	1.01 ± 0.031	1.05 ± 0.04	1.03 ± 0.046
NECAP2 (UniProt Q9NVZ3)	0.956 ± 0.025	0.969 ± 0.041	0.959 ± 0.025	0.961 ± 0.054	0.921 ± 0.027	0.959 ± 0.031
RLIM (UniProt Q9NVW2)	1.07 ± 0.17	1.04 ± 0.19	1.12 ± 0.16	1.12 ± 0.25	1.06 ± 0.23	1.06 ± 0.17
AVEN (UniProt Q9NQS1)	0.797 ± 0.062	0.827 ± 0.025	0.845 ± 0.048	0.903 ± 0.092	0.884 ± 0.042	0.895 ± 0.032
UniProt Q9NX74	1.06 ± 0.13	1.07 ± 0.14	1.09 ± 0.16	1.07 ± 0.2	1.08 ± 0.14	1.06 ± 0.15
UniProt Q9NZQ3 and related entries	1.03 ± 0.031	1.06 ± 0.022	1.03 ± 0.065	1.02 ± 0.084	1.03 ± 0.033	1.06 ± 0.027
SMC4 (UniProt Q9NTJ3)	1.01 ± 0.033	0.9853 ± 0.0086	0.963 ± 0.016	1.01 ± 0.031	0.991 ± 0.029	0.984 ± 0.04
UniProt Q9NYJ8	0.907 ± 0.015	0.878 ± 0.0098	0.979 ± 0.11	0.9507 ± 0.0047	1.09 ± 0.1	0.986 ± 0.026
UniProt Q9NS23-4	1.11 ± 0.084	1.17 ± 0.12	1.14 ± 0.045	1.12 ± 0.16	1.15 ± 0.08	1.11 ± 0.015
MPP6 (UniProt Q9NZW5)	1.03 ± 0.058	1.01 ± 0.03	1.01 ± 0.032	0.983 ± 0.072	1.01 ± 0.044	0.994 ± 0.04
CCDC88C (UniProt Q9P219)	0.949 ± 0.026	0.955 ± 0.02	0.951 ± 0.022	0.977 ± 0.022	0.935 ± 0.012	0.923 ± 0.014
UTP6 (UniProt Q9NYH9)	1.01 ± 0.13	0.965 ± 0.089	1.03 ± 0.088	0.851 ± 0.2	0.994 ± 0.058	0.975 ± 0.0095
CMTM6 (UniProt Q9NX76)	0.9 ± 0.032	0.941 ± 0.048	0.907 ± 0.073	0.858 ± 0.039	0.898 ± 0.059	0.91 ± 0.024
UniProt Q9NRV9 and related entries	0.984 ± 0.14	0.956 ± 0.12	0.971 ± 0.11	0.969 ± 0.12	0.97 ± 0.13	0.948 ± 0.14
UniProt Q9NPF2 and related entries	0.878 ± 0.076	0.9 ± 0.028	0.863 ± 0.017	0.909 ± 0.029	0.917 ± 0.088	0.916 ± 0.059
MRPL39 (UniProt Q9NYK5)	1.02 ± 0.021	0.949 ± 0.075	0.922 ± 0.1	0.901 ± 0.2	0.918 ± 0.17	0.882 ± 0.15

Record cards (already shown). Values in the order: NP40-soluble protein abundance (concentration: 1mM) | NP40-soluble protein abundance (concentration: 2mM) | NP40-soluble protein abundance (concentration: 4mM) | NP40-soluble protein abundance (concentration: 6mM) | NP40-soluble protein abundance (concentration: 8mM) | NP40-soluble protein abundance (concentration: 10mM)
THUMPD1 (UniProt Q9NXG2) as listed: 0.934 ± 0.038 | 0.955 ± 0.012 | 0.952 ± 0.026 | 0.983 ± 0.013 | 0.96 ± 0.013 | 0.931 ± 0.079
UniProt Q9NPF2 and related entries as listed: 0.878 ± 0.076 | 0.9 ± 0.028 | 0.863 ± 0.017 | 0.909 ± 0.029 | 0.917 ± 0.088 | 0.916 ± 0.059
